Consider 86 sequences from the supplement of paper PMC3334620.

In all, about 33,000 sequences were measured (“E-score (-0.5 to 0.5)”: median about -0.016, highest 2% from about 0.3 on). The list shows a part of the results.

This experiment deals with T1, Yer184c (UniProt P39961).
T1 sequence: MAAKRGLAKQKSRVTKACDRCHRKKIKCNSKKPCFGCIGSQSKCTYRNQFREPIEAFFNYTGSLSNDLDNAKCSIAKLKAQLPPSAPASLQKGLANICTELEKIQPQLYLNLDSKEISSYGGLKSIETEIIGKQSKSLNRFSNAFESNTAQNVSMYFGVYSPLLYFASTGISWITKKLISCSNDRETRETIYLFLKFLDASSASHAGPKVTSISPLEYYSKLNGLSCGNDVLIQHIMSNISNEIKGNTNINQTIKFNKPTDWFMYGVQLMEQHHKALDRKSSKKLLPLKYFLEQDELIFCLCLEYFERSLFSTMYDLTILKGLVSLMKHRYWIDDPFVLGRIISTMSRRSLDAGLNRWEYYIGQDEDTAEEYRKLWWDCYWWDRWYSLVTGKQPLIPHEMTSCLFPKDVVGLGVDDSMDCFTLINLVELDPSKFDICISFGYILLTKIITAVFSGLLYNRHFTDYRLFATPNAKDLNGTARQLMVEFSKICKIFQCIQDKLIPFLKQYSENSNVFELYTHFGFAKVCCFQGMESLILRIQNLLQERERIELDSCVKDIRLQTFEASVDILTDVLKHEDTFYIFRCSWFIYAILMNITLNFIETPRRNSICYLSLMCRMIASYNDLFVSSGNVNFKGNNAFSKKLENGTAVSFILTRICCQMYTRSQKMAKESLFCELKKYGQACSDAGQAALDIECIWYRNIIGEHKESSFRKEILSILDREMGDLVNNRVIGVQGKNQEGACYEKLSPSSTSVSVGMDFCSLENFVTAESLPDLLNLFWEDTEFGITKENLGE
The experiment in a line: PBM E-score (8-mer binding enrichment) (E-score (-0.5 to 0.5)); higher = stronger / more preferred TF binding. Particulars: protein concentration: 100 nM; construct: GST-full length. Here is the method:
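Universal 'all 10-mer' protein binding microarrays (Agilent AMADID 015681) probed with GST-tagged S. cerevisiae TFs (full-length or DBD) made by in vitro transcription/translation (PURExpress), about 100-200 nM. Bound TF was detected with fluorescent anti-GST. Each ungapped 8-mer (which stands for itself and its reverse complement) is scored by the PBM enrichment score (E-score), a modified Wilcoxon-Mann-Whitney statistic from -0.5 to +0.5, computed with the Universal PBM Analysis Suite. Scale: above 0.35 generally sequence-specific binding.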
As to AGTCCTAA, the “PBM E-score” value was -0.0699. TAACACGA: the “PBM E-score” value amounted to 0.171. For TGGACTAA, the “PBM E-score” value was -0.00992.

In the case of ACACACGT, the “PBM E-score” value was -0.0782. The same measure for AGCAAAAA: 0.126; for CGGACTGA: 0.0412; for GTAACACA: 0.0912. On to AACAGTAG, for which the “PBM E-score” value worked out at 0.0519. As for CGCCCCTA, the “PBM E-score” value is -0.133.

On to CAAGAGAA, for which the “PBM E-score” value amounted to 0.136. As for ACGACGTC, the “PBM E-score” value was -0.253. As to CGTACTGA, the “PBM E-score” value was found to be 0.0516. In the case of CGATCGGC, the “PBM E-score” value is 0.196. As for GGACTAAA, the “PBM E-score” value was 0.105. Regarding AAAGTCGC, the “PBM E-score” value is 0.184. Consider AATCAGAG, for which the “PBM E-score” value is -0.0887.

In the case of ATCTATCG, the “PBM E-score” value was -0.0264. Regarding ACGGAGCT, the “PBM E-score” value is -0.0489. Regarding ATTTTCTG, the “PBM E-score” value is 0.0877.

AAGCCCCA: the “PBM E-score” value was -0.302. Consider ATAACTGC, for which the “PBM E-score” value worked out at 0.0353. In the case of AGCAAGTC, the “PBM E-score” value was -0.143. Regarding ACAGCACA, the “PBM E-score” value stood at 0.0855.

As for CGGCTTTA, the “PBM E-score” value was found to be 0.264. The same measure for GCCCCGCA: -0.268; for ACTTAGCT: -0.246; for ATCTGTAA: 0.0139. To AACTAACG belongs 0.161; to ACCTGTCT, -0.247. As for GCCTAGGA, the “PBM E-score” value is -0.182. CAATTGAG: the “PBM E-score” value was 0.0961. Turning to CTGCTTGC, the “PBM E-score” value was -0.0904. ACACCCCG: the “PBM E-score” value was -0.197.

On to ATGGGCAG, for which the “PBM E-score” value was -0.201.

For the sequence CCCGAAGA, the “PBM E-score” value worked out at 0.105. Take CCAAACGA: the “PBM E-score” value turned out to be 0.015. The same measure for TACGGCCA: -0.1; for GCGAGAAC: 0.0561; for GCATCCGA: 0.176. As for AGTCGACC, the “PBM E-score” value was -0.0151.

On to ACGCTCGA, for which the “PBM E-score” value was -0.0816. To AGTTGTAG belongs 0.0893; to GCTGCGCA, -0.096. Regarding ACAAGGGA, the “PBM E-score” value is -0.0864.

As for GCTAAGTA, the “PBM E-score” value worked out at 0.108. Turning to CCTTTGCA, the “PBM E-score” value is -0.109. In the case of AGCTGACA, the “PBM E-score” value is 0.0472. As for AGCGGCCT, the “PBM E-score” value is -0.179. With CCGTATTC, the “PBM E-score” value was 0.141. For the sequence ACCGCACA, the “PBM E-score” value is -0.307. As for ACCTATTC, the “PBM E-score” value is -0.181. Take AAAGGCTA: the “PBM E-score” value was -0.211. With GATTCTAA, the “PBM E-score” value was 0.0814. Consider AAATCGGA, for which the “PBM E-score” value stood at 0.308.

Turning to GTCATTGA, the “PBM E-score” value is -0.0947. Regarding AAGTCCGG, the “PBM E-score” value was determined as 0.295. For AGTAAGAG, the “PBM E-score” value was -0.102.

With CACACCGC, the “PBM E-score” value was -0.0491. As for AACATAGG, the “PBM E-score” value is -0.115. The same measure for TAAACTGA: 0.101; for GCGTCACA: -0.162. In the case of ACGTCGGC, the “PBM E-score” value was 0.1.

CCTCCAAA: the “PBM E-score” value was -0.112. To ATATTCAG belongs 0.111; to CCCACCAG, -0.265; to ATGAGTCA, -0.203. The same measure for GTCAGCGA: -0.262; for AATCAGGG: -0.259; for ACGGGACG: -0.0892. With GCACCCCA, the “PBM E-score” value is -0.33.

Consider ATGAATTG, for which the “PBM E-score” value was found to be 0.0349. To AGGTCTAA belongs 0.00634.

Consider ACATGCCC, for which the “PBM E-score” value was -0.114.

As to CCCGTAGA, the “PBM E-score” value was -0.211. Consider ACCACGGT, for which the “PBM E-score” value was -0.112. For ACAATCGC, the “PBM E-score” value stood at 0.0673. As to CAAGTCCG, the “PBM E-score” value came to 0.119. With AAATATGT, the “PBM E-score” value was found to be 0.304. On to AAAATACT, for which the “PBM E-score” value came out at 0.145. On to AGCTAACA, for which the “PBM E-score” value is -0.0928.

Turning to AGGCCAAT, the “PBM E-score” value is -0.138. Turning to CCGTTAGG, the “PBM E-score” value is 0.0597. For CAATAGAC, the “PBM E-score” value was -0.00121.

For GAGAGGGA, the “PBM E-score” value was -0.23.

As for ATCCCTAC, the “PBM E-score” value amounted to 0.0439.

With ACATCCCA, the “PBM E-score” value was -0.0973.
